Publication PMC7761743, “Structure and Characterization of Phosphoglucomutase 5 from Atlantic and Baltic Herring—An Inactive Enzyme with Intact Substrate Binding” (Biomolecules, 2020)
Results are given in words; binding and its absence hold for the method and conditions named. Tags and fused reporters may be left off the sequences shown.

Tests used:
[1] = molecular target: Atlantic herring phosphoglucomutase 5 (Atlantic variant with Ala330) (Clupea harengus harengus (Atlantic herring)); experiment: SEC; preparative size exclusion chromatography during purification: HiLoad 16/60 Superdex 200 and Superdex 75, 25 mM Tris-HCl, 150 mM NaCl, pH 8.0; both purified
[2] = molecular target: Baltic herring phosphoglucomutase 5 (Baltic variant with Val330) (Clupea harengus membras (Baltic herring)); experiment: as above

B1: Atlantic herring phosphoglucomutase 5 (Atlantic variant with Ala330) (protein, UniProt A0A6P3VN15 1-567)
chain: METNPIPVVTVQTTPFDDQKPGTNGLRKKTTVFESKKNYLQNYIQSVLSSIDLRDRQGCTMVVGSDGRYFSRTAIEVIVQMAAANGIGRLVIGHNGILSTPAVSCIIRKIKAIGGIILTASRNPGGPNGDFGIKFNVANGGPAPDTVIDKIHQVSRTLEEYAICPDMRIDLSRLGRQDFDLENKFKPFRVEIVDSVEVYLNLLRGIFDFNAIKGLLTGPDQLKMRVDAMSGVMGPYVRRILCDELGAPANSAVNCVPLEDFGGHYPDPNLTYATGLVDAMKGGEFGFGAAFDADGDRCMILGQNAFFVNPSDSLAVVAANLSCIPYFRQAGVRGFARSMPTSTAIDRVAKAMKVAVYETPAGWRFFGNLMDSGRCSFCGEESFGMGSDHIREKDGLWTVLVWLSIMAARKQGVEDIVRDHWTKLGRNYFCRFDYEAIDPRAAFYLMKDLEAVISDKAFCSQKFAVGNSVYSVEKADNFEYIDPVDGTVARNQGLRIIFSESSRLIFRLSGTGVGVGATIRIYAESFERDPERHNREPQVVLGPLIAIALKISDIHERTGRRGPTVIT
binding [1]: no binding

B2: Baltic herring phosphoglucomutase 5 (Baltic variant with Val330) (protein, UniProt A0A6P3VN15 1-567)
chain: METNPIPVVTVQTTPFDDQKPGTNGLRKKTTVFESKKNYLQNYIQSVLSSIDLRDRQGCTMVVGSDGRYFSRTAIEVIVQMAAANGIGRLVIGHNGILSTPAVSCIIRKIKAIGGIILTASRNPGGPNGDFGIKFNVANGGPAPDTVIDKIHQVSRTLEEYAICPDMRIDLSRLGRQDFDLENKFKPFRVEIVDSVEVYLNLLRGIFDFNAIKGLLTGPDQLKMRVDAMSGVMGPYVRRILCDELGAPANSAVNCVPLEDFGGHYPDPNLTYATGLVDAMKGGEFGFGAAFDADGDRCMILGQNAFFVNPSDSLAVVAANLSCIPYFRQVGVRGFARSMPTSTAIDRVAKAMKVAVYETPAGWRFFGNLMDSGRCSFCGEESFGMGSDHIREKDGLWTVLVWLSIMAARKQGVEDIVRDHWTKLGRNYFCRFDYEAIDPRAAFYLMKDLEAVISDKAFCSQKFAVGNSVYSVEKADNFEYIDPVDGTVARNQGLRIIFSESSRLIFRLSGTGVGVGATIRIYAESFERDPERHNREPQVVLGPLIAIALKISDIHERTGRRGPTVIT
binding [2]: no binding
